{"source": "PubChem BioAssay AID638", "about": "(SRMLSC, 2007)", "note": "The campaign covered roughly 1,300 compounds. About 65 (5%) were called active.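 The calls were made as follows: active = growth inhibition reaching a set limit at one or more tested doses; inactive = the rest.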 The list shows a part of the results. Results with a measured potency or affinity are listed apart.", "data": [{"assay": "growth inhibition of wild-type E. coli, dose response, BW25113 wild type, OD615 (AID 638)", "conditions": "at 100 µM (top of the series) unless noted", "method_in_brief": "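assay system = wild-type Escherichia coli strain BW25113 growth | medium = Kanamycin-supplemented LB broth | measured by = optical density (absorbance) at 615 nm | timing = bacterial exposure to compound 20 h at 37 °C | doses = compound concentration series | measure = IC50 from 4-parameter logistic, bounds fixed 0–100% | controls = chloramphenicol 30 µM control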", "values": [{"smiles": "O=C(NCc1ccco1)c1cc2sccc2n1Cc1ccccc1", "growth inhibition": "inactive: -6.37%"}, {"smiles": "c1ccc(CCc2ccccc2-c2nc(-c3cccnc3)no2)cc1", "growth inhibition": "inactive: 2.9%"}, {"smiles": "Cc1c(C(=O)N2CCc3ccccc3C2)sc2nc(-c3ccccc3)cn12", "growth inhibition": "inactive: -29.2%"}, {"smiles": "COc1ccc(-c2cnc(N)n2CC2CCCO2)cc1", "note": "(configuration not stated)", "growth inhibition": "inactive: -2.76%"}, {"smiles": "Fc1cccc(-c2cc3nc4c(c(N5CCOCC5)n3n2)CCCC4)c1", "growth inhibition": "inactive: 0.39%"}, {"smiles": "CCCOc1ccc(C(=O)N2CCN(c3ccc(NC(=O)CC)cc3Cl)CC2)cc1", "growth inhibition": "inactive: 14.6%"}, {"smiles": "O=C(Nc1nnc(-c2ccccc2)o1)c1nc2ccccc2s1", "growth inhibition": "inactive: -11.8%"}, {"smiles": "CC(C)n1c(C(=O)OCC(=O)NCc2ccc3c(c2)OCO3)cc2occc21", "growth inhibition": "inactive: -0.66%"}, {"smiles": "Cc1cc(NC(=O)Cn2nnc3sc4c(c3c2=O)CCC(C(C)(C)C)C4)no1", "note": "(configuration not stated)", "growth inhibition": "inactive: 6.34%"}, {"smiles": "Cc1nn(-c2ccccc2)c(C)c1C(=O)Nc1nnc(-c2ccco2)o1", "growth inhibition": "inactive: 9.7%"}, {"smiles": "CCCc1nc2ccccc2c(=O)n1NC(=O)c1c(O)c2ccccc2[nH]c1=O", "growth inhibition": "inactive: -2.14%"}, {"smiles": "C=CCc1c(C)nc(SCc2nc3ccccc3c(=O)[nH]2)[nH]c1=O", "growth inhibition": "inactive: -15.1%"}, {"smiles": "O=S(=O)(c1ccccc1)N1CCN(Cc2ccccc2C(F)(F)F)CC1", "growth inhibition": "inactive: 6.92%"}, {"smiles": "Cc1ccc(C(C)C)c(Oc2nnnn2-c2ccccc2)c1", "growth inhibition": "inactive: -0.52%"}, {"smiles": "C=C(C)COc1ccc(-c2ncncc2Oc2ccc(OC)cc2)c(O)c1", "growth inhibition": "inactive: 11.3%"}, {"smiles": "COC(=O)c1ccc(C2c3c(n[nH]c3C)C(=O)N2c2ccc(C)cc2)cc1", "note": "(configuration not stated)", "growth inhibition": "inactive: 11.1%"}, {"smiles": "CCCCCn1c(-c2ccco2)nc2nc3ccccc3nc21", "growth inhibition": "inactive: 11.6%"}, {"smiles": "O=C(Nc1sc2c(c1C(=O)O)CCC2)c1cccs1", "growth inhibition": "inactive: -9.69%"}, {"smiles": "Cc1ccc2c(c1)c(C)c(C)n2CC(O)Cn1nc(C)c(Br)c1C", "note": "(configuration not stated)", "growth inhibition": "inactive: -3.25%"}, {"smiles": "CCOC(=O)c1cc2oc(C)cc2n1CC(=O)OC1CCCCC1", "growth inhibition": "inactive: 9.56%"}, {"smiles": "Oc1ccc(Br)cc1-c1nc2cnccn2c1NC1CCCC1", "growth inhibition": "inactive: 16.3%"}, {"smiles": "c1ccc2c(c1)oc1c(N3CCN(Cc4ccc5c(c4)OCO5)CC3)ncnc12", "growth inhibition": "inactive: -2.91%"}, {"smiles": "CCOC(=O)CCSc1nc2c(c(C(F)(F)F)c1C#N)CCC2", "growth inhibition": "inactive: 4.77%"}, {"smiles": "CCOC(=O)N1CCN(c2nc(-c3ccc(F)cc3)cs2)CC1", "growth inhibition": "inactive: 6.6%"}, {"smiles": "CCOC(=O)c1cnc(-n2cc(C)cn2)nc1Nc1ccccc1OCC", "growth inhibition": "inactive: 4.31%"}, {"smiles": "C=C(C)COc1ccc(-c2n[nH]c(C)c2-c2ccccc2)c(O)c1", "growth inhibition": "active: 20.5%"}, {"smiles": "COc1ccc(-c2noc(C)c2-c2ccc3ccccc3n2)c(O)c1", "growth inhibition": "inactive: 0.79%"}, {"smiles": "O=C(Nc1nc(-c2ccccc2)cs1)c1cccs1", "growth inhibition": "inactive: 1.49%"}, {"smiles": "COC(=O)c1[nH]c2ccccc2c1NC(=O)CN1CCN(c2cccc(OC)c2)C(C)C1", "note": "(configuration not stated)", "growth inhibition": "inactive: -2.45%"}, {"smiles": "Cc1cc2c(cc(C(=O)OCC(=O)NCc3cccs3)n2C(C)C)o1", "growth inhibition": "inactive: 3.77%"}, {"smiles": "CCOC(=O)c1ccc(NC(=O)CSc2nc(SC)ns2)cc1", "growth inhibition": "inactive: 18.4%"}, {"smiles": "CC(C)c1ccc(OCc2nc(-c3ccccn3)no2)c(Br)c1", "growth inhibition": "inactive: 8.32%"}, {"smiles": "COc1ccc(NC(=O)N2CCCC(c3nc(-c4ccc(C(C)C)cc4)no3)C2)cc1", "note": "(configuration not stated)", "growth inhibition": "inactive: -13.1%"}, {"smiles": "O=S(=O)(Nc1nc2ccccc2nc1N1CCN(c2ccccn2)CC1)c1ccc(Cl)cc1", "growth inhibition": "inactive: -0.89%"}, {"smiles": "COc1cc(C2C(C(=O)c3ccc(C)o3)=C(O)C(=O)N2c2cc(C)on2)cc(Br)c1O", "note": "(configuration not stated)", "growth inhibition": "inactive: -1.59%"}, {"smiles": "CN(C)c1nc(SCCOC(=O)Nc2ccccc2)nc(N(C)C)n1", "growth inhibition": "inactive: -4.74%"}, {"smiles": "CCCc1ccc(Oc2cn[nH]c2-c2ccc(O)cc2O)cc1", "growth inhibition": "inactive: 8.26%"}, {"smiles": "CC(=O)Nc1cccc(NC(=O)c2oc3ccccc3c2C)c1", "growth inhibition": "inactive: 3.29%"}, {"smiles": "c1ccc(Cn2nnc3c(N4CCN(Cc5ccc6c(c5)OCO6)CC4)ncnc32)cc1", "growth inhibition": "inactive: -8.7%"}, {"smiles": "O=C(Nc1ccc(S(=O)(=O)N2CCCc3ccccc32)cc1)C1CCCO1", "note": "(configuration not stated)", "growth inhibition": "inactive: -2.99%"}, {"smiles": "COc1ccc2nc(N3CCC(C)CC3)c(C#N)cc2c1", "growth inhibition": "inactive: 9.35%"}, {"smiles": "COc1ccccc1N1CCN(C(c2ccc(Cl)cc2)c2nnnn2C(C)(C)C)CC1", "note": "(configuration not stated)", "growth inhibition": "inactive: -6.6%"}, {"smiles": "Clc1cccc(-c2nc3nc4ccccc4nc3n2Cc2ccco2)c1", "growth inhibition": "inactive: -12.9%"}, {"smiles": "COc1ccc(C(C(O)C(=O)c2c[nH]c3ccccc23)N2CCN(c3ccc(OC)cc3)CC2)cc1", "note": "(configuration not stated)", "growth inhibition": "inactive: 4.53%"}, {"smiles": "CC(C)N(Cc1nc(-c2ccc(Cl)cc2)no1)C(=O)c1cccs1", "growth inhibition": "inactive: 3.57%"}, {"smiles": "Nc1nc(CN2CCN(c3cccc(Cl)c3)CC2)nc(N2CCCc3ccccc32)n1", "growth inhibition": "inactive: 4.24%"}, {"smiles": "CCOC(=O)Cc1c(C)nc2c(-c3cccc(Br)c3)c[nH]n2c1=O", "growth inhibition": "inactive: 7.94%"}, {"smiles": "CCOC(=O)c1sc2c(c1C)C(c1cccs1)C1=C(CCCC1=O)N2", "note": "(configuration not stated)", "growth inhibition": "inactive: 7.91%"}, {"smiles": "Cc1cc(Cl)ccc1OCC(=O)Nc1ccccc1N1CCOCC1", "growth inhibition": "inactive: 2.58%"}, {"smiles": "COc1cccc(-c2cc(C(=O)N3CCc4ccccc4C3)no2)c1", "growth inhibition": "inactive: -9.48%"}, {"smiles": "CC1=C(C(=O)OC2CCCCCCC2)C(c2cccc(O)c2)NC(=O)N1", "note": "(configuration not stated)", "growth inhibition": "inactive: 3.95%"}, {"smiles": "COc1ccc(OC)c(C(=O)COC(=O)c2cc(C)oc2C)c1", "growth inhibition": "inactive: -6.45%"}, {"smiles": "CCC(C(=O)N1CCN(c2cccc(Cl)c2)CC1)c1ccccc1", "note": "(configuration not stated)", "growth inhibition": "inactive: 10.5%"}, {"smiles": "Cc1ccc(NC(=O)c2ccccc2O)cc1", "growth inhibition": "inactive: 4.55% [at 50 µM]"}, {"smiles": "COc1ccc(NS(=O)(=O)c2cc(C)ccc2NC(=O)c2cc(C)oc2C)cc1", "growth inhibition": "inactive: 11.8%"}, {"smiles": "COc1ccccc1-c1nnc(NC(=O)c2ccc(S(=O)(=O)N(C)C)cc2)o1", "growth inhibition": "inactive: 1.56%"}, {"smiles": "O=C(NCCc1ccccc1)c1nc2c(nnn2Cc2ccccc2Cl)c(=O)[nH]1", "growth inhibition": "inactive: -1.17%"}, {"smiles": "CCC(C)(C)n1nnnc1C(c1cc2ccc(C)cc2[nH]c1=O)N(Cc1cccnc1)Cc1ccco1", "note": "(configuration not stated)", "growth inhibition": "inactive: -19.6%"}, {"smiles": "N=c1n(CCN2CCOCC2)c2ccccc2n1CC(=O)c1ccc(Cl)c(Cl)c1", "growth inhibition": "inactive: -3.82%"}, {"smiles": "COC(=O)c1cc(CSc2nc3ccc(C)cc3[nH]2)oc1C", "growth inhibition": "inactive: 1.2%"}, {"smiles": "O=C(NCc1ccco1)C(c1cccs1)N(C(=O)C1COc2ccccc2O1)c1cccc(O)c1", "note": "(configuration not stated)", "growth inhibition": "inactive: 1.03%"}, {"smiles": "N#Cc1nc(-c2ccc(OCc3ccccc3)cc2)oc1NCCCN1CCOCC1", "growth inhibition": "inactive: -5.85%"}, {"smiles": "CC(C)c1nc(N2CCN(C(=O)c3ccco3)CC2)c2c3c(sc2n1)CCCC3", "growth inhibition": "inactive: 8.8%"}, {"smiles": "O=C(CC(=O)c1cc(Cl)ccc1O)c1ccccc1", "growth inhibition": "inactive: 19.9%"}, {"smiles": "C=CCSc1nc2c(c(=N)n1CC=C)C1CCCC1S2", "note": "(configuration not stated)", "growth inhibition": "inactive: 14.5%"}, {"smiles": "O=C(CSc1nc2nc(-c3cccs3)cc(C(F)(F)F)c2c(=O)[nH]1)NCc1ccco1", "growth inhibition": "inactive: 2.45%"}, {"smiles": "COc1ccccc1C1SCCN1S(=O)(=O)c1cccc(C(F)(F)F)c1", "note": "(configuration not stated)", "growth inhibition": "inactive: -11.3%"}, {"smiles": "O=C(Nc1ccc(Cl)cc1)N1CCC(c2nc(-c3ccc(F)cc3)no2)CC1", "growth inhibition": "inactive: 7.49%"}, {"smiles": "CC1(C)C(=O)OC(c2cc(Br)ccc2O)C(C)(C)C1=O", "note": "(configuration not stated)", "growth inhibition": "inactive: 6.03%"}, {"smiles": "CCOC(=O)N1CCN(S(=O)(=O)c2ccc(OCC)c3ccccc23)CC1", "growth inhibition": "inactive: 5.33%"}, {"smiles": "Clc1ccc(Nc2nc(-c3cccs3)cs2)nc1", "growth inhibition": "inactive: 8.56%"}, {"smiles": "Cc1nn(Cc2ccc(C(=O)N3c4ccc(F)cc4CCC3C)o2)c(C)c1Br", "note": "(configuration not stated)", "growth inhibition": "inactive: 6.16%"}, {"smiles": "CC(C)Cc1cc(C(=O)Nc2sc3c(c2C#N)CCCC3)no1", "growth inhibition": "inactive: 0.67%"}, {"smiles": "Cn1c(CSc2nc3ccccc3s2)nc2ccccc21", "growth inhibition": "inactive: 13.6%"}, {"smiles": "Cc1cc(C)c(O)c(-c2cc(C(=O)Nc3ccc(S(=O)(=O)N4CCOCC4)cc3)[nH]n2)c1", "growth inhibition": "inactive: 1.63%"}, {"smiles": "COC(=O)c1ccccc1NC(=O)c1ccc2c(c1)OCCO2", "growth inhibition": "inactive: 8.18%"}, {"smiles": "CN(C)Cc1nc2c(c(=O)[nH]1)C1(CCCCC1)Cc1ccccc1-2", "growth inhibition": "inactive: -2.46%"}, {"smiles": "CC1CCN(C(=O)c2ccc(COc3ccccc3Cl)o2)CC1", "growth inhibition": "inactive: 11.2%"}, {"smiles": "CNc1ccc(C(O)(C(F)(F)F)C(F)(F)F)cc1C(O)(C(F)(F)F)C(F)(F)F", "growth inhibition": "inactive: 9.61%"}, {"smiles": "Cn1c(=O)n(Cc2ccccc2)c(=O)c2c1nc1n2CCCN1Cc1ccccc1", "growth inhibition": "inactive: -13.5%"}, {"smiles": "O=C(CN1CCN(S(=O)(=O)c2ccc(F)cc2)CC1)Nc1ccc(Cl)c(C(F)(F)F)c1", "growth inhibition": "inactive: 1.58%"}, {"smiles": "CCOC(=O)c1cnn(-c2nc3sc4c(c3c(=O)[nH]2)CCCC4)c1N", "growth inhibition": "inactive: -1.22%"}, {"smiles": "CCc1ccc(S(=O)(=O)NCCc2csc(-c3ccccc3)n2)s1", "growth inhibition": "inactive: -7.65%"}, {"smiles": "O=C(c1ccc(Cl)c(Cl)c1)N(Cc1ccco1)c1ccc(O)cc1", "growth inhibition": "inactive: 15.9%"}, {"smiles": "CCOc1cc(C)c(Cl)cc1S(=O)(=O)n1nnc2ccccc21", "growth inhibition": "inactive: -9.49%"}, {"smiles": "O=C(CCNc1cc(Cl)cc(Cl)c1)c1ccco1", "growth inhibition": "inactive: 7.38%"}, {"smiles": "COc1ccc(-c2noc(CN3CCC(Cc4ccccc4)CC3)n2)cc1", "growth inhibition": "inactive: 14.1%"}, {"smiles": "O=C(O)C1CC=CCC1C(=O)Nc1ccc(S(=O)(=O)N2CCCc3ccccc32)cc1", "note": "(configuration not stated)", "growth inhibition": "inactive: 16.2%"}, {"smiles": "Cc1ccc2[nH]c(=O)c(C(c3nnnn3C3CCCC3)N(Cc3cccnc3)Cc3ccco3)cc2c1", "note": "(configuration not stated)", "growth inhibition": "inactive: -10.9%"}, {"smiles": "CCc1nc(N2CCCCC2)c2oc3ccccc3c2n1", "growth inhibition": "inactive: -1.03%"}, {"smiles": "Cc1cc(C)nc(-n2nc(C)cc2Nc2ccccc2)n1", "growth inhibition": "inactive: 7.27%"}, {"smiles": "Cc1cc(C)c(C#N)c(SCC(=O)OC2CCCCC2)n1", "growth inhibition": "inactive: 8.15%"}]}]}
